In all, about 340,000 compounds went through this assay and about 170 (0.05%) were called active. The shares of active, inactive and inconclusive entries below differ from those in the screen. Calls follow the shape of the dose curve; as a rule, active = well fitted inhibition curve with a large enough effect in the signal ratio, with a control signal flat (not every such curve was filed as active); inconclusive = small, poorly fitted or top-dose-only effect, or effect the other way, or a change in a side signal; inactive = flat fitted curve, though single readings scatter; the % refers to the signal ratio. Potencies of inconclusive entries are doubtful fits and often do not repeat.
Assay: qHTS Assay to Find Inhibitors of Chronic Active B-Cell Receptor Signaling;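 as to activity change, negative = inhibition: plate controls were basal doxycycline-induced cells for no effect and cells given 10 µM MG132 for full effect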
Conditions: ABC-DLBCL IkBa-CBG/CBR reporter, luminescence ratio (green luciferase fused to IkBa over red control in TMD8 lymphoma cells), 4 h; activity change, negative = inhibition: at 46.1 µM (top of the series)
In short: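 Doxycycline induced both beetle luciferases in TMD8 lymphoma cells; IKK-driven degradation limits the IkappaBalpha-fused green signal, while red luminescence normalises for cell number and nonspecific effects. Compounds tested up to 46 uM, 4 hrs.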
For `Cc1cc(F)ccc1S(=O)(=O)NCC(c1cccnc1)N1CCc2ccccc21` (configuration not stated), the activity change, negative = inhibition was inconclusive: -12.1%.
For `CCOc1ccccc1NC(=O)CSC1=NN2CCCC(=O)N=C2S1`, the Potency was inconclusive: 35.5 µM [falling, partial curve, poor fit].
For `COCC(=O)Nc1cccc2ccccc12`, the Potency was inconclusive: 2.06 µM [falling, partial curve, poor fit].
In the case of `COc1ccc(S(=O)(=O)NNC(=O)c2cc3cc4ccccc4nc3s2)cc1`, the Potency is reported as inconclusive: 18.4 µM [rising, partial curve, poor fit].
In the case of `Cc1ccccc1N1CCN(Cc2nc(Cc3ccccc3F)no2)CC1`, the Potency is reported as inconclusive: 35.5 µM [falling, single point].
For `COc1ccc(C2CC(c3cccc(Br)c3)=NN2c2ccc(S(N)(=O)=O)cc2)cc1` (configuration not stated), the activity change, negative = inhibition was inconclusive: 1.76%.
In the case of `O=C(NC(=S)Nc1nc(-c2ccc([N+](=O)[O-])cc2)cs1)c1ccco1`, the activity change, negative = inhibition is reported as inconclusive: 7.44%.
With `S=C(Nc1ccc(Cl)c(Cl)c1)N1CCOCC1` the activity change, negative = inhibition was inconclusive: 8.28%.
For `COc1cc(NS(=O)(=O)c2ccc(NC(=S)NC(=O)COc3ccccc3OC)cc2)nc(OC)n1`, the Potency was inconclusive: 2.82 µM [rising, full curve, poor fit].
With `COc1cccc(/C=C/C(=O)OCC(=O)Nc2ccc(N3CCOCC3)cc2)c1OC` the activity change, negative = inhibition was inconclusive: -10.4%.
With `O=C(O)c1cccc(-n2c(/C=C/c3ccccc3)nc3ccccc3c2=O)c1` the activity change, negative = inhibition was inconclusive: -2.5%.
For `Cc1ccc(S(=O)(=O)Nc2cc3c4c(c2)CCN4C(=O)CC3)cc1`, the activity change, negative = inhibition was inconclusive: -15.6%.
With `O=C(N/N=C/c1cccnc1)c1cccc(Br)c1` the activity change, negative = inhibition was inconclusive: -15.7%.
In the case of `Cc1ccc(S(=O)(=O)NNC(=O)c2cc3cc4ccccc4nc3s2)cc1`, the activity change, negative = inhibition is reported as inconclusive: 16.8%.
With `Oc1[nH]c2ccc(Br)cc2c1N=NC(=S)N1CCOCC1` the Potency was inconclusive: 0.631 µM [falling, partial curve, poor fit].
For `CNCCCCOc1ccccc1-c1ccccc1`, the activity change, negative = inhibition was inconclusive: -1.64%.
For `CCCCCCNc1cc(C)oc(=O)c1C(C)=O`, the activity change, negative = inhibition was inconclusive: 1.75%.
With `Cc1ccc(C(=O)Nc2ccc(O)cc2C(=O)O)cc1` the Potency was inconclusive: 1.64 µM [rising, partial curve, poor fit].
In the case of `CCc1c(C2(O)CCCCC2)[nH]c2ccc(C(F)(F)F)cc12`, the activity change, negative = inhibition is reported as inconclusive: 25.5%.
For `CN(Cc1ccccc1Cl)C(=O)CCNC(=O)c1ccco1`, the activity change, negative = inhibition was inconclusive: -2.45%.
With `Cc1cc(C)cc(Oc2ccccc2C=O)c1` the activity change, negative = inhibition was inconclusive: -0.998%.
With `Cc1onc(-c2ccccc2)c1C(=O)OCC(=O)NC(C)c1ccc(Cl)cc1` (configuration not stated) the activity change, negative = inhibition was inconclusive: 1.45%.
With `C=C(C)CN(CC)c1nc(N)c(C#N)c(CC#N)c1C#N` the activity change, negative = inhibition was inconclusive: 0.137%.
In the case of `Cc1ccc(S(=O)(=O)NCc2ccc(C(=O)N3CCc4ccccc4C3)cc2)cc1`, the activity change, negative = inhibition is reported as inconclusive: -0.47%.
For `O=C(NCc1ccccc1)C1=C[C@H](C2CC2)C[C@H](OCc2ccc(CO)cc2)O1`, the activity change, negative = inhibition was inconclusive: 11.2%.
For `CCC1=NN2C(=N)/C(=C\c3cccn3-c3c(C)cccc3C)C(=O)N=C2S1`, the “activity change, negative = inhibition” value was inactive: 6.1%.
For `CCOC(=O)N1CCN(C(=O)CN2C(=O)NC(C)(c3ccc4ccccc4c3)C2=O)CC1` (configuration not stated), the “activity change, negative = inhibition” value was inactive: 2.31%.
In the case of `CCn1c(SCC(=O)Nc2cc(C)on2)nc2c(c1=O)SCC2`, the activity change, negative = inhibition is reported as inconclusive: 6.61%.
For `Nc1nc(NCc2ccccc2Cl)n(-c2ccccc2)n1`, the activity change, negative = inhibition was inconclusive: -17.4%.
For `COc1ccc2c(C)cc(=O)[nH]c2c1`, the activity change, negative = inhibition was inconclusive: -23.6%.
For `Cc1ccc(C)c(CSc2nnc3[nH]c(=O)cc(C)n23)c1`, the “activity change, negative = inhibition” value was inactive: 12.1%.
In the case of `CCN(CC)c1ccc2nc3ccccc3[n+](CC)c2c1`, the activity change, negative = inhibition is reported as inconclusive: 12.9%.
For `CC(C)OC(=O)c1ccc(NC(=O)c2ccco2)cc1`, the Potency was inconclusive: 29.1 µM [falling, single point].
With `O=C(CS(=O)(=O)c1c[nH]c2ccccc12)N1CCCc2ccccc21` the Potency was inconclusive: 4.61 µM [falling, partial curve, poor fit].
In the case of `CS(=O)(=O)Nc1ccccc1C(=O)OCC(=O)N1CCC(c2ccccc2)=N1`, the Potency is reported as inconclusive: 25.9 µM [falling, partial curve, poor fit].
With `CCOc1cc(C(=O)CCC(=O)OCC(=O)Nc2ccc(C)c(S(=O)(=O)N(C)C)c2)ccc1O` the activity change, negative = inhibition was inconclusive: -12.7%.
For `CCN(CC)CCNc1nc2cc(OC)c(OC)cc2c2nc(-c3ccccc3)nn12`, the activity change, negative = inhibition was inconclusive: 4.77%.
For `O=S1(=O)NC(CC2=CCCCC2)C2CCCCC2O1` (configuration not stated), the “activity change, negative = inhibition” value was inactive: -1.08%.
In the case of `CC(=O)N1CCCc2cc(S(=O)(=O)N3CCCC(C(=O)N4CCN(c5cccc(Cl)c5)CC4)C3)ccc21` (configuration not stated), the activity change, negative = inhibition is reported as inconclusive: -12%.
With `COc1cc(C(=O)NC(=S)Nc2nc(-c3ccc(F)cc3)cs2)cc(OC)c1OC` the activity change, negative = inhibition was inconclusive: 1.8%.
In the case of `CC1CCCCN1C(=O)C1CC(c2ccc(F)cc2)=NO1` (configuration not stated), the activity change, negative = inhibition is reported as inconclusive: 1.18%.
In the case of `COc1ccc(NC(=O)CN2CCN(CC(=O)Nc3ccc(F)cc3F)CC2)cc1`, the Potency is reported as inconclusive: 15.8 µM [falling, single point].
In the case of `CC1(c2ccccc2Cl)NC(=O)N(CC(=O)NCc2ccco2)C1=O` (configuration not stated), the “activity change, negative = inhibition” value is reported as inactive: 1.88%.
In the case of `CC(C)CC(OC(=O)c1cccs1)C(=O)NCc1ccco1` (configuration not stated), the activity change, negative = inhibition is reported as inconclusive: -2.21%.
For `c1ccc2c(c1)CCN(C1=Nc3cccc4cccc1c34)C2`, the “activity change, negative = inhibition” value was inactive: 9%.
With `Cc1nnc(N/N=C/c2cc([N+](=O)[O-])c(N3CCC(C)CC3)cc2N2CCC(C)CC2)n1N` the “activity change, negative = inhibition” value was inactive: 0.866%.
In the case of `O=C(Nc1cccc(Cl)c1)Nc1nc(-c2ccc(Cl)cc2)cs1`, the activity change, negative = inhibition is reported as inconclusive: 12.8%.
For `CCCSC1=C(C#N)C(c2ccc(OC)cc2)C2=C(CC(C)(C)CC2=O)N1` (configuration not stated), the “activity change, negative = inhibition” value was inactive: 1.04%.
In the case of `CC(SCC(=O)NC12CC3CC(CC(C3)C1)C2)C(=O)O` (configuration not stated), the activity change, negative = inhibition is reported as inconclusive: -0.552%.
With `O=C1NC(=Nc2cccc(O)c2)S/C1=C\c1cccc([N+](=O)[O-])c1` the Potency was inconclusive: 35.5 µM [falling, single point].
For `CCOC(=O)c1cnn2cc(-c3[nH]ncc3[N+](=O)[O-])cnc12`, the activity change, negative = inhibition was inconclusive: 5.75%.
For `O=C(Oc1cc(-c2ccccc2)no1)c1cccc(C(F)(F)F)c1`, the “activity change, negative = inhibition” value was inactive: -0.789%.
With `O=C(COC(=O)Cc1c(Cl)cccc1Cl)NCc1ccco1` the activity change, negative = inhibition was inconclusive: 8.12%.
With `Cc1ccc(C(=O)Nc2ccc(NC(=O)c3cccs3)cc2)cc1[N+](=O)[O-]` the activity change, negative = inhibition was inconclusive: 4.72%.
For `CCOc1cc(/C=C(\C#N)C(=O)Nc2cccc(C(=O)O)c2)cc(Br)c1OC(=O)c1ccc(OC)cc1`, the activity change, negative = inhibition was inconclusive: 9.52%.
With `COc1ccc(CC2(CO)CCN(CC3=Cc4cc(Cl)ccc4OC3)CC2)cc1` the “activity change, negative = inhibition” value was inactive: 6.16%.
For `CCc1cccc(NS(=O)(=O)c2c(C)nc3scc(C)n3c2=O)c1`, the “activity change, negative = inhibition” value was inactive: -1.34%.
For `COc1cccc(NC(=O)Nc2nccc(C)n2)c1`, the “activity change, negative = inhibition” value was inactive: -11.4%.
In the case of `Nc1c(C(=O)CSc2nnnn2-c2ccc(O)cc2)c(=O)[nH]c(=O)n1C1CC1`, the activity change, negative = inhibition is reported as inconclusive: 12.6%.
In the case of `CCC(CC)CN1C(N(C)C)=NC[C@@H]1CC(C)C`, the “activity change, negative = inhibition” value is reported as inactive: -0.364%.
In the case of `Cc1ccc(OCC(=O)Nc2ccccc2-c2ccccc2)cc1`, the activity change, negative = inhibition is reported as inconclusive: 8.03%.
With `Oc1ccc(/C=C/c2cnccn2)cc1` the Potency was inconclusive: 28.2 µM [rising, single point].
In the case of `CC(C)=CCC/C(C)=C/CC/C(C)=N/O`, the “activity change, negative = inhibition” value is reported as inactive: 11.9%.
With `Cc1ccc2nc(N3CCN(C)CC3)c(C#N)cc2c1` the “activity change, negative = inhibition” value was inactive: 4.62%.
With `NNC(=O)c1ccccc1OCc1ccccc1` the Potency was inconclusive: 2.51 µM [falling, full curve, poor fit].
With `O=C(Nc1ccccc1[N+](=O)[O-])c1nc[nH]c1C(=O)NCCO` the activity change, negative = inhibition was inconclusive: 3.72%.
For `Cc1ccc(N/C(=C\C(=O)c2ccccc2)C(=O)O)cc1`, the Potency was inconclusive: 14.1 µM [falling, partial curve, poor fit].
In the case of `Brc1cccc(OCCN2CCCCC2)c1`, the “activity change, negative = inhibition” value is reported as inactive: 0.977%.
With `O=c1cc(-c2ccccc2)[nH]n1-c1nc2ccccc2[nH]1` the “activity change, negative = inhibition” value was inactive: 7.23%.
In the case of `O=Cc1ccc(N2CCCC2)c([N+](=O)[O-])c1`, the “activity change, negative = inhibition” value is reported as inactive: 2.76%.
With `CN(C)S(=O)(=O)c1cccc(NC(=O)COC(=O)c2cc3ccccc3oc2=O)c1` the Potency was inconclusive: 35.5 µM [falling, single point].
With `CC1CCN(C(=S)c2cn(Cc3ccccc3F)c3ccccc23)CC1` the activity change, negative = inhibition was inconclusive: 5.92%.
For `COc1ccccc1-n1nnnc1S(=O)(=O)Cc1ccc(Cl)cc1`, the activity change, negative = inhibition was inconclusive: 12.2%.
In the case of `O=C(CN1c2cccc3cccc(c23)S1(=O)=O)NC1CCCCC1`, the activity change, negative = inhibition is reported as inconclusive: -1.2%.
For `Cc1ccc2c(c1)[C@H]1[C@H](CO2)[C@H](c2ccccc2)[C@]2(C)C(=O)Nc3ccc(Cl)cc3C(=O)N12`, the activity change, negative = inhibition was inconclusive: 5.61%.
With `O=C(CCc1c[nH]c2ccccc12)NCCOc1ccccc1` the activity change, negative = inhibition was inconclusive: 23.9%.
In the case of `C#CCOCCOCCOCCNc1nc(N2CCN(C(=O)CCCCCCCCCCNC(=O)Cn3cc(CCCCCN)nn3)CC2)nc(N2CCN(C(=O)CCCCCCCCCCNC(=O)[C@H]([C@@H](C)CC)n3cc(CCCCCN)nn3)CC2)n1`, the “activity change, negative = inhibition” value is reported as inactive: 2.84%.
For `COc1ccccc1-c1nn2c(-c3ccco3)nnc2s1`, the activity change, negative = inhibition was inconclusive: 8.3%.
In the case of `CC(=O)Nc1cccc(NC(=O)CSc2nc3ccccc3o2)c1`, the activity change, negative = inhibition is reported as inconclusive: -14.4%.
With `Cn1c(=O)cc(SCC(=O)NCCCN2CCN(c3ccc(F)cc3)CC2)c2ccccc21` the Potency was inconclusive: 35.5 µM [falling, single point].
In the case of `NC(=O)c1ccc(NC(=O)CCC(=O)N2CCN(S(=O)(=O)c3ccc(Cl)cc3)CC2)cc1`, the Potency is reported as inconclusive: 35.5 µM [falling, single point].
In the case of `COc1ccc2c(c1OC)C(=O)N1N=C(c3ccc(Cl)cc3)CC21` (configuration not stated), the Potency is reported as inconclusive: 18.4 µM [falling, partial curve].

From PubChem BioAssay AID493014 (National Center for Advancing Translational Sciences (NCATS), 2011)
Potency is read from the fitted curve at half-maximal effect.
